The list shows only some results of the screen, not a fair sample: it covers a few groups of compounds. Other doses and runs of a compound may be missing. T/C gives the treated animals as a percentage of the vehicle group. For survival time, this PubChem deposit counts one and a half times the control or more as active, and values a quarter to a half above the control carry no call in these data; other NCI protocols may use other cut-offs. Schedule codes are those of the source, read here as Q, the interval in days (D) or hours (H), X, the number of doses. Some doses were run more than once; the values are given in rising order.
Tested on: BALB/cJ mice, ADJ-PC-6 ip tumor, median survival T/C
Assay: NCI In Vivo Anticancer Drug Screen. Data for tumor model ADJ-PC-6 (intraperitoneal) in BALB/cJ mice
Settings: T/C endpoint: median survival time, schedule: Q04DX003 (ip), vehicle: saline, higher T/C = longer survival
Description: The antitumor activity of compounds was measured in mice bearing transplantable tumors. Survival or tumor size were measured and the results are expressed as the measurement made in the treated group (T) divided by the measurement made in the vehicle treated control group (C). The tumor model used in this assay is ADJ-PC-6 (intraperitoneal) in BALB/cJ mice

`CN(CCCl)CCCl` was tested, and the T/C (dose: 0.15 mg/kg/injection) was 138 and 171 % of control, the T/C (dose: 0.3 mg/kg/injection) was 176 and 177 % of control and the T/C (dose: 0.6 mg/kg/injection) was 168 and 189 % of control. For the same molecule, the T/C (dose: 1.2 mg/kg/injection) was 190 and 230 % of control and the T/C (dose: 2.4 mg/kg/injection) was 277 % of control.

— PubChem BioAssay AID184 (DTP/NCI, 2004)
